Test results from the supplement of paper PMC10849652.
This is one part of the list.

Protein sequences, listed by entry. Tags and fused reporters are not part of them. Lines headed by an entry give the natural chain unless they say otherwise; changes in a name come on top.
UniProt O75179: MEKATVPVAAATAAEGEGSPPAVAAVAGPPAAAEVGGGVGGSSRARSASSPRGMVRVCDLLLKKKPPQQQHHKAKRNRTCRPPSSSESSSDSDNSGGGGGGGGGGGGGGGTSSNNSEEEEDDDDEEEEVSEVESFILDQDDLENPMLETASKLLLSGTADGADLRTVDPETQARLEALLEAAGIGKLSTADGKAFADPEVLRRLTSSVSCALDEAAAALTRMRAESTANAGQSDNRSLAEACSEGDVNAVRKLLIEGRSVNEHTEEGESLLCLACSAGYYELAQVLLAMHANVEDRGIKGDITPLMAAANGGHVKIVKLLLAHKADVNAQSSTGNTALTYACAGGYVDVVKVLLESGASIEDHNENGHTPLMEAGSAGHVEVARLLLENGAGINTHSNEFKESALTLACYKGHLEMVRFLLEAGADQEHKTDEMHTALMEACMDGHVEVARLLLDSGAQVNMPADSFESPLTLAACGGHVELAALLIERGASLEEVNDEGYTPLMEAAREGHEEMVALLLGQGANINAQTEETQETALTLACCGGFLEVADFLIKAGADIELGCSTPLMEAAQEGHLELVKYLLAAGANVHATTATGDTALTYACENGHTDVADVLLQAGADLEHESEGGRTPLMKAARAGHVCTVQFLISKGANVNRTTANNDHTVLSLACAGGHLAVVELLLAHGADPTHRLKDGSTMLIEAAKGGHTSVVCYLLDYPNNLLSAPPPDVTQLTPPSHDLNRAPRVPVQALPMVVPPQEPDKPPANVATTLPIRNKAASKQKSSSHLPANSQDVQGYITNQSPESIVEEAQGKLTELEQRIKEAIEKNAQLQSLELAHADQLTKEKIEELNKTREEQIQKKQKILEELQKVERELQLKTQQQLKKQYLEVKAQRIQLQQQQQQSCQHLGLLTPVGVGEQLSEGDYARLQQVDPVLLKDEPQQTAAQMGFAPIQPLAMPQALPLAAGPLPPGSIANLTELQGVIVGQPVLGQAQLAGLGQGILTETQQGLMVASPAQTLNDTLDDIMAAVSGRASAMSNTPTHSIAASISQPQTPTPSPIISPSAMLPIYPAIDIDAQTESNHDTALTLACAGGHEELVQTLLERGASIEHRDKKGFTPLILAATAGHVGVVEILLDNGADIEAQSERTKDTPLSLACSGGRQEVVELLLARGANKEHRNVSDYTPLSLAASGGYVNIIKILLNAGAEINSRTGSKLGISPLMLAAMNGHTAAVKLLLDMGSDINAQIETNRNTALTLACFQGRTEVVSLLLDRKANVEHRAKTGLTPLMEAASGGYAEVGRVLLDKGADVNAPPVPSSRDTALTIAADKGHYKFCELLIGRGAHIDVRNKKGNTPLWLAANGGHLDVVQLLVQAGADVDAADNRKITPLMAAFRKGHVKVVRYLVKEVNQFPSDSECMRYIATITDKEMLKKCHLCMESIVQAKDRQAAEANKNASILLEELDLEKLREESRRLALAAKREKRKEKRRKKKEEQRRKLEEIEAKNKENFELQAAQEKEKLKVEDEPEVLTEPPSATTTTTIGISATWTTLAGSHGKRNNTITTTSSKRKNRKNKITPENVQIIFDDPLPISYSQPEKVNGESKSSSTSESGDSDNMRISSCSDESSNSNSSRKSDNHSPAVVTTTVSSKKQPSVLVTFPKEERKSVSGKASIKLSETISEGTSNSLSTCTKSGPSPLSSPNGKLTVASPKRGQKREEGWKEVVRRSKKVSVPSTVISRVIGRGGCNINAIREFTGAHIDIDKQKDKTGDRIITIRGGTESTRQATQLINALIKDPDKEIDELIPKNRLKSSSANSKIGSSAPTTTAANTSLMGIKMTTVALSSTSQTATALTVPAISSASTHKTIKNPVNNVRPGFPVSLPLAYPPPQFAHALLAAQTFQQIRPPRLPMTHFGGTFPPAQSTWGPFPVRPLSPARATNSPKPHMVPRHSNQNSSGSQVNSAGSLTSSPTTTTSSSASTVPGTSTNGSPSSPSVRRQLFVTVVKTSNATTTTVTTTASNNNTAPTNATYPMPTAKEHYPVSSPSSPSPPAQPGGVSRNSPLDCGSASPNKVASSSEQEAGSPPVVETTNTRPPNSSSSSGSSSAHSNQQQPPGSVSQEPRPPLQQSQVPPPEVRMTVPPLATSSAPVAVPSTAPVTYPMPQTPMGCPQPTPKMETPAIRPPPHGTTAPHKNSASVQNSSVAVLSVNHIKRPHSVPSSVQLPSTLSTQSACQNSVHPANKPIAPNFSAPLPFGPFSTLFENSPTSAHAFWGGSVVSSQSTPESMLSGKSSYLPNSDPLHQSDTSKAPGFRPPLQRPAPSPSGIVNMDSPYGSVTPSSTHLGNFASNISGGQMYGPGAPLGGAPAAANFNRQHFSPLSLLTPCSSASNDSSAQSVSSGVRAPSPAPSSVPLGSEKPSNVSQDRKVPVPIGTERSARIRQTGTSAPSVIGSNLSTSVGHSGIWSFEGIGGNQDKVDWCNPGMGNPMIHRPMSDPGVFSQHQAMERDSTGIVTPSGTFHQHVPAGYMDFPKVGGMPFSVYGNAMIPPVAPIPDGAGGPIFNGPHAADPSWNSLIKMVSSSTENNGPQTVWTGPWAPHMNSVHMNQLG
UniProt O00203: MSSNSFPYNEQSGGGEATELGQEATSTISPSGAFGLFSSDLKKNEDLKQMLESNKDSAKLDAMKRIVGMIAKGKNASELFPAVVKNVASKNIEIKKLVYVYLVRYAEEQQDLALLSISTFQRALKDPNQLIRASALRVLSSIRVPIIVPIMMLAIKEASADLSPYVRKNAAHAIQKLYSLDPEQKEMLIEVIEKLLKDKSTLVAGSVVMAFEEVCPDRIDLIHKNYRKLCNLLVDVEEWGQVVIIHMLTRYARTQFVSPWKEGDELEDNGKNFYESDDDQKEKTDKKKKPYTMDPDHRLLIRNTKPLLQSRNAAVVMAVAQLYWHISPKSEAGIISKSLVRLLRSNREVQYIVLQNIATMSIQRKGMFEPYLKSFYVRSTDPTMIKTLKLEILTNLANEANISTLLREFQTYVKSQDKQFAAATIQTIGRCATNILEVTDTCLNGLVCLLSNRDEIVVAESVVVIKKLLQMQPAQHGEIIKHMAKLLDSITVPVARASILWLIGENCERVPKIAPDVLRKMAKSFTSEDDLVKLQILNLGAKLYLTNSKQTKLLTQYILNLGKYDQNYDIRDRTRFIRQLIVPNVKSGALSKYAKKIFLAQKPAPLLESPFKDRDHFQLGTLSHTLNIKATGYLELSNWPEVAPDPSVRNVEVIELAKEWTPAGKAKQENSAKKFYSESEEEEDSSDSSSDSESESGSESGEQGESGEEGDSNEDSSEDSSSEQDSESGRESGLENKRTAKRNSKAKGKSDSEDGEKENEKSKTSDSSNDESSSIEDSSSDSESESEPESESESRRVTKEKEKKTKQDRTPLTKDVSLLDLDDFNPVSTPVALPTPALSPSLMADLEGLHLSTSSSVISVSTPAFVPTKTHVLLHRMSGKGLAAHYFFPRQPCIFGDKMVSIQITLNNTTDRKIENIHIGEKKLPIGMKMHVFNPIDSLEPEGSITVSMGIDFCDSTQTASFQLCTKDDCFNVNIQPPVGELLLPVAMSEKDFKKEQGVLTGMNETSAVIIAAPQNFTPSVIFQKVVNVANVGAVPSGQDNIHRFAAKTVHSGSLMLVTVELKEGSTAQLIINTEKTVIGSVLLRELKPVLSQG
UniProt Q9Y6D6: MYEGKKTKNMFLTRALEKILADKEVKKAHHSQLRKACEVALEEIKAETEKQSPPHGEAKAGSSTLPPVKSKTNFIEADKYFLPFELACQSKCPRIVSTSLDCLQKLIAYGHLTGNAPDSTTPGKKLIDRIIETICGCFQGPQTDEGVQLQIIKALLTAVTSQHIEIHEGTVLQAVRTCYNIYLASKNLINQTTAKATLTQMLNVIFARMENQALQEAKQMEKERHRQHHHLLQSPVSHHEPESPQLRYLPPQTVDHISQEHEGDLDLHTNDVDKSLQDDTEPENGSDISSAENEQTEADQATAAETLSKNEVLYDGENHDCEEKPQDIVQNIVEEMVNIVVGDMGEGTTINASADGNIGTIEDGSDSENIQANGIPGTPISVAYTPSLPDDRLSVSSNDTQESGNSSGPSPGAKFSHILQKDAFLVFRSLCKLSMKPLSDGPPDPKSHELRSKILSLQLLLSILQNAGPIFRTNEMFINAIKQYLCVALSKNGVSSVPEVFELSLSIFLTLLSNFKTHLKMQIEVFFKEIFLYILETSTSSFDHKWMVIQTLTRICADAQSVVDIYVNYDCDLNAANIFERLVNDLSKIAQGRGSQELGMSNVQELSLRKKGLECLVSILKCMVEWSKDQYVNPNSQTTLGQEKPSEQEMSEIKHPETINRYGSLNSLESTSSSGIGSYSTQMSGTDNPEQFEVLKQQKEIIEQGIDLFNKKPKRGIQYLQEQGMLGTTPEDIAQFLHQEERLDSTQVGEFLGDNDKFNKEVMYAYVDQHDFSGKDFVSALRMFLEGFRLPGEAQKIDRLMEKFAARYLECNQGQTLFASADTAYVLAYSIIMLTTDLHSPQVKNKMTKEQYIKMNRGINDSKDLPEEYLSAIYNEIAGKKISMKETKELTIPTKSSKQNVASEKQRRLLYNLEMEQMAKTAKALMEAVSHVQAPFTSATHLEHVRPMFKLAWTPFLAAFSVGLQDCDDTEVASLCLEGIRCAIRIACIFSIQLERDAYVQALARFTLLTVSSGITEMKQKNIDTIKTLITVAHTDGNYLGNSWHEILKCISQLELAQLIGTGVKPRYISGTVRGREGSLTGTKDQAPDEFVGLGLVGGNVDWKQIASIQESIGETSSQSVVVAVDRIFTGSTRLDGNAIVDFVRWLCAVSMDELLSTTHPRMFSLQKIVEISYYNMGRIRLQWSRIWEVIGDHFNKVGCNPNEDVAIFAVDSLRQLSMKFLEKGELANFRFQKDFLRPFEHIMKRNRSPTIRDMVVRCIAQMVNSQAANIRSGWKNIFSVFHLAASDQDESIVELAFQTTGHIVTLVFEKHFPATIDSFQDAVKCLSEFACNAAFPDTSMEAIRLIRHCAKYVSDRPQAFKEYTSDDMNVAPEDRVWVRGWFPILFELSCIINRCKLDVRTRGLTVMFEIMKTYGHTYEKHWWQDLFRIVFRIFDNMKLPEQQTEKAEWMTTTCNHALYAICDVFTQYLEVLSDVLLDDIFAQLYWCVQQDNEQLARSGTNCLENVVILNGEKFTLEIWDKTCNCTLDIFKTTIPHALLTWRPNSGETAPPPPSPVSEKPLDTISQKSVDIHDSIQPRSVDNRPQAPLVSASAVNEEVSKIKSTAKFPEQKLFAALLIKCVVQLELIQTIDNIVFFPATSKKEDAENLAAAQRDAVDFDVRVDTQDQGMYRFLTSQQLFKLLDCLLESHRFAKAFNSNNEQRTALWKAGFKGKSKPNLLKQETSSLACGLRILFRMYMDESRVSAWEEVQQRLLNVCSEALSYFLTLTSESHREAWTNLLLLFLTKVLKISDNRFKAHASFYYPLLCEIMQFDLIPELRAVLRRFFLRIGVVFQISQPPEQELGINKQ
UniProt O95782: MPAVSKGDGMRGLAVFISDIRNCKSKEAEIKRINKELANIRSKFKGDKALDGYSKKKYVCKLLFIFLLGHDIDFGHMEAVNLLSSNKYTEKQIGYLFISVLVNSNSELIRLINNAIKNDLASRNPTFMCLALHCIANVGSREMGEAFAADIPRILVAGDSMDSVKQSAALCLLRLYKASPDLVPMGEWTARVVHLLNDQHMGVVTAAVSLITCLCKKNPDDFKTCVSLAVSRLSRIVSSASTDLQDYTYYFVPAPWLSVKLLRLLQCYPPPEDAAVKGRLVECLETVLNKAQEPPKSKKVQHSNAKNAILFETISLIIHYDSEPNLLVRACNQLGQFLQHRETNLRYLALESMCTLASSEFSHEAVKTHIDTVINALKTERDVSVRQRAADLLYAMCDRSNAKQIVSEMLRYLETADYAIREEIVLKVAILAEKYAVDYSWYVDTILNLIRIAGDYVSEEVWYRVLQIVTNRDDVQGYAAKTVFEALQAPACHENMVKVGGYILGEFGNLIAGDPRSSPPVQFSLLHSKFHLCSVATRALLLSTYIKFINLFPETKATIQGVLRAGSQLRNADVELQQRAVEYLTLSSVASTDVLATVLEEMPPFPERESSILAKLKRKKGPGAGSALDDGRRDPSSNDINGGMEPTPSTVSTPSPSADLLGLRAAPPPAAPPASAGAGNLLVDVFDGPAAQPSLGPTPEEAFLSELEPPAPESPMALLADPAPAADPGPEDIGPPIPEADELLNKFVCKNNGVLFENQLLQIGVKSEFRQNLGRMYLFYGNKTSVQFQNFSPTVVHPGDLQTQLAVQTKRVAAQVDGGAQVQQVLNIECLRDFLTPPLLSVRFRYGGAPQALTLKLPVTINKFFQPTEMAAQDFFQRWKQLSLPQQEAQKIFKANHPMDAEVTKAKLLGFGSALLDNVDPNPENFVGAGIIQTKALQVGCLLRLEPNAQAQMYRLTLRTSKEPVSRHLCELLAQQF

What was measured:
Assay in all cases: log2 fold change, soluble protein after heating vs DMSO (PISA); higher = thermal stabilisation; K562 cells, 10 uM, 30 min; active = over 0.2 and 3.5 SD of the protein, either way, in both replicates (recomputed)
[1] = compound: CC1=C(C=C(C=C1)NC(=O)C2=CC(=CC=C2)C(C)(C)C#N)NC3=CC4=C(C=C3)N=CN(C4=O)C
Procedure, shortened: (§1)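 Aliquots of K562 cells (2×10^6 cells/mL) treated with 10 μM compound for 30 min were heated for 3 min over 48°C-58°C. After pooling and extraction in PBS with 0.5% NP-40 at 4°C, soluble protein from a 21,000xg, 90 min spin was quantified by TMTpro 16plex LC-MS/MS with channel sums equalised. Thermal stability is expressed against control samples, from duplicates, as a log2 fold change.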

[2] = compound: CC1=C(C=C(C=C1)NC(=O)C2=CC(=CC=C2)N(C)C)NC(=O)C3=CC=C(C=C3)O
Procedure, shortened: as §1

[3] = compound: CC1=CC=C(C=C1)SC2=C3C=C(SC3=CN=C2)C(=O)N
Procedure, shortened: as §1

[4] = compound: CC1=NC(=CC=C1)C2=C(N=C(N2)C(C)(C)C)C3=CC4=NC=CN=C4C=C3
Procedure, shortened: as §1

Nexturastat A = compound: CCCCN(Cc1ccc(C(=O)NO)cc1)C(=O)Nc1ccccc1 [Nexturastat A]
Procedure, shortened: as §1

vemurafenib = compound: CCCS(=O)(=O)Nc1ccc(F)c(C(=O)c2c[nH]c3ncc(-c4ccc(Cl)cc4)cc23)c1F [vemurafenib]
Procedure, shortened: as §1

[5] = compound: CCCS(=O)(=O)Nc1ccc(F)c(C(=O)c2c[nH]c3ncc(Cl)cc23)c1F
Procedure, shortened: as §1

[6] = compound: CCCc1cc(C)[nH]c(=O)c1CNC(=O)c1cc(-c2ccnc(N3CCN(C)CC3)c2)cc2c1cnn2C(C)C
Procedure, shortened: as §1

givinostat = compound: CCN(CC)Cc1ccc2cc(COC(=O)Nc3ccc(C(=O)NO)cc3)ccc2c1 [givinostat]
Procedure, shortened: as §1

barasertib = compound: CCN(CCCOc1ccc2c(Nc3cc(CC(=O)Nc4cccc(F)c4)[nH]n3)ncnc2c1)CCOP(=O)(O)O [barasertib]
Procedure, shortened: as §1

[7] = compound: CC[C@@H]1C(=O)N(C)c2cnc(Nc3ccc(C(=O)NC4CCN(C)CC4)cc3OC)nc2N1C1CCCC1
Procedure, shortened: as §1

volasertib = compound: CC[C@@H]1C(=O)N(C)c2cnc(Nc3ccc(C(=O)N[C@H]4CC[C@H](N5CCN(CC6CC6)CC5)CC4)cc3OC)nc2N1C(C)C [volasertib]
Procedure, shortened: as §1

[8] = compound: CC[C@H](C)N1C=C(C2=C(C=C(C=C21)C3=CN=C(C=C3)N4CCNCC4)C(=O)NCC5=C(C=C(NC5=O)C)C)C
Procedure, shortened: as §1

epoxomicin = compound: CC[C@H](C)[C@@H](C(=O)N[C@@H]([C@@H](C)O)C(=O)N[C@@H](CC(C)C)C(=O)[C@]1(CO1)C)NC(=O)[C@H]([C@@H](C)CC)N(C)C(=O)C [epoxomicin]
Procedure, shortened: as §1

[9] = compound: CCn1c(C(=O)N(C2CC2)C2CC2)cc2c3c(ncn3C)c(Nc3cc(C)n(C)n3)nc21
Procedure, shortened: as §1

[10] = compound: CCn1cc(-c2ccnc3[nH]c(-c4cccc(CN(C)C)c4)cc23)c(-c2ccc(NC(=O)N(C)C)cc2)n1
Procedure, shortened: as §1

[11] = compound: CN(C)CC(=O)Nc1ccc2[nH]c(=O)c3ccccc3c2c1
Procedure, shortened: as §1

rosiglitazone = compound: CN(CCOC1=CC=C(C=C1)C[C@H]2C(=O)NC(=O)S2)C3=CC=CC=N3 (racemic) [rosiglitazone]
Procedure, shortened: as §1

[12] = compound: CN1C2=C(C3=C1C(=O)N(N=C3)CC4=CC(=CC=C4)N)SC(=C2)S(=O)C
Procedure, shortened: as §1

[13] = compound: CN1CCC(CNc2ccc3ncc(-c4cccc(OC(F)(F)F)c4)n3n2)CC1
Procedure, shortened: as §1

Measured: log2 fold change

ANKMY2 (UniProt Q8IV38)
inactive: [1] 0.032 | [2] -0.036 | [3] 0.024 | [4] 0.057 | Nexturastat A -0.068 | vemurafenib 0.004 | [5] 0.073 | [6] 0.039 | givinostat 0.019 | barasertib 0.003 | [7] -0.05 | volasertib -0.17 | [8] 0.048 | epoxomicin 0.067 | [9] -0.027 | [10] -0.064 | [11] 0.005 | rosiglitazone 0.065 | [12] -0.058 | [13] 0.047

ANXA6 (UniProt P08133)
inactive: [1] -0.001 | [2] -0.034 | [3] -0.018 | [4] 0.005 | Nexturastat A -0.038 | vemurafenib 0.013 | [5] 0.004 | [6] -0.064 | givinostat 0.03 | barasertib 0.072 | [7] -0.021 | volasertib -0.108 | [8] 0.039 | epoxomicin -0.003 | [9] -0.005 | [10] 0.228 | [11] 0.043 | rosiglitazone 0.024 | [12] 0 | [13] -0.035

ANKRD17 (UniProt O75179)
inactive: [1] -0.083 | [2] -0.009 | [3] -0.001 | [4] -0.056 | Nexturastat A 0.24 | vemurafenib -0.214 | [5] 0 | [6] -0.006 | givinostat 0.19 | barasertib 0.038 | [7] 0.069 | volasertib -0.098 | [8] -0.017 | epoxomicin -0.024 | [9] -0.081 | [10] 0.044 | [11] -0.128 | rosiglitazone 0.025 | [12] 0.093 | [13] -0.07

ARF5 (UniProt P84085)
inactive: [1] -0.031 | [2] -0.017 | [3] 0 | [4] 0.038 | Nexturastat A -0.091 | vemurafenib -0.001 | [5] 0.011 | [6] -0.011 | givinostat -0.021 | barasertib -0.025 | [7] 0.008 | volasertib 0.043 | [8] -0.027 | epoxomicin -0.044 | [9] 0.009 | [10] -0.01 | [11] 0.011 | rosiglitazone 0.018 | [12] -0.073 | [13] 0.039

AP3B1 (UniProt O00203)
inactive: [1] -0.001 | [2] -0.038 | [3] 0.002 | [4] 0.016 | Nexturastat A 0.009 | vemurafenib 0.022 | [5] 0.054 | [6] 0.019 | givinostat 0.024 | barasertib 0.054 | [7] -0.048 | volasertib -0.154 | [8] 0.088 | epoxomicin -0.006 | [9] -0.041 | [10] -0.026 | [11] 0.027 | rosiglitazone 0.035 | [12] 0.019 | [13] -0.086

ANAPC16 (UniProt Q96DE5)
inactive: [1] 0.026 | [2] -0.031 | [3] -0.047 | [4] -0.008 | Nexturastat A 0.035 | vemurafenib 0.076 | [5] -0.047 | [6] 0.032 | givinostat -0.025 | barasertib 0.092 | [7] 0.02 | volasertib 0.024 | [8] 0.011 | epoxomicin 0.13 | [9] 0.03 | [10] 0.042 | [11] -0.042 | rosiglitazone -0.022 | [12] -0.06 | [13] -0.058

ANAPC4 isoform 3 (UniProt Q9UJX5)
inactive: [1] 0.015 | [2] 0.012 | [3] -0.034 | [4] -0.006 | Nexturastat A 0.057 | vemurafenib -0.053 | [5] 0.061 | [6] 0.026 | givinostat -0.009 | barasertib -0.007 | [7] -0.011 | volasertib -0.122 | [8] 0.027 | epoxomicin 0.001 | [9] 0.001 | [10] 0.04 | [11] 0.006 | rosiglitazone -0.01 | [12] -0.023 | [13] 0.006

ANLN (UniProt Q9NQW6)
inactive: [1] -0.13 | [2] 0.05 | [3] -0.144 | [4] -0.078 | Nexturastat A 0.023 | vemurafenib 0.075 | [5] -0.233 | [6] 0.005 | givinostat 0.059 | barasertib 0.261 | [7] -0.021 | volasertib -0.03 | [8] 0.005 | epoxomicin 0.065 | [9] -0.059 | [10] -0.265 | [11] -0.133 | rosiglitazone -0.145 | [12] 0.158 | [13] -0.109

ARHGAP18 (UniProt Q8N392)
inactive: [1] -0.018 | [2] -0.049 | [3] 0.057 | [4] 0.076 | Nexturastat A 0.05 | vemurafenib 0.07 | [5] 0.06 | [6] 0.037 | givinostat 0.093 | barasertib 0.063 | [7] -0.063 | volasertib -0.401 | [8] 0.071 | epoxomicin 0.03 | [9] -0.068 | [10] -0.022 | [11] 0.083 | rosiglitazone 0.025 | [12] 0.003 | [13] -0.089

ARFGEF1 (UniProt Q9Y6D6)
inactive: [1] -0.03 | [2] -0.013 | [3] -0.014 | [4] 0 | Nexturastat A -0.042 | vemurafenib 0.035 | [5] 0.041 | [6] 0.155 | givinostat 0.029 | barasertib -0.015 | [7] -0.022 | volasertib -0.248 | [8] 0.01 | epoxomicin 0.033 | [10] 0.011 | [11] -0.005 | [12] -0.037 | [13] -0.046

APEH (UniProt P13798)
inactive: [1] -0.012 | [2] 0.011 | [3] 0.002 | [4] -0.01 | Nexturastat A -0.062 | vemurafenib -0.024 | [5] -0.011 | [6] -0.018 | givinostat -0.019 | barasertib 0.011 | [7] 0.039 | volasertib 0.024 | [8] -0.033 | epoxomicin -0.005 | [9] 0.045 | [10] 0.018 | [11] -0.006 | rosiglitazone 0.004 | [12] -0.041 | [13] -0.025

APOBR (UniProt Q0VD83)
inactive: [1] -0.039 | [2] 0.002 | [3] 0.034 | [4] -0.069 | Nexturastat A -0.079 | vemurafenib -0.043 | [5] 0.021 | [6] -0.005 | givinostat -0.023 | barasertib -0.012 | [7] 0.015 | volasertib 0.045 | [8] -0.014 | epoxomicin 0.008 | [9] 0.013 | [10] 0.009 | [11] -0.07 | rosiglitazone -0.014 | [12] -0.034 | [13] 0.025

AP2A1 (UniProt O95782)
inactive: [1] 0.024 | [2] -0.016 | [3] 0.004 | [4] 0.084 | Nexturastat A 0.048 | vemurafenib 0.009 | [5] 0.03 | [6] -0.003 | givinostat 0.008 | barasertib -0.028 | [7] 0.076 | volasertib -0.085 | [8] 0.015 | epoxomicin -0.011 | [10] -0.002 | [11] -0.041 | [12] 0.005 | [13] 0

Taken from the listing (2 entries):
ANLN (UniProt Q9NQW6)
inactive: [1] -0.13 | [2] 0.05 | [3] -0.144 | [4] -0.078 | Nexturastat A 0.023 | vemurafenib 0.075 | [5] -0.233 | [6] 0.005 | givinostat 0.059 | barasertib 0.261 | [7] -0.021 | volasertib -0.03 | [8] 0.005 | epoxomicin 0.065 | [9] -0.059 | [10] -0.265 | [11] -0.133 | rosiglitazone -0.145 | [12] 0.158 | [13] -0.109

ARHGAP18 (UniProt Q8N392)
inactive: [1] -0.018 | [2] -0.049 | [3] 0.057 | [4] 0.076 | Nexturastat A 0.05 | vemurafenib 0.07 | [5] 0.06 | [6] 0.037 | givinostat 0.093 | barasertib 0.063 | [7] -0.063 | volasertib -0.401 | [8] 0.071 | epoxomicin 0.03 | [9] -0.068 | [10] -0.022 | [11] 0.083 | rosiglitazone 0.025 | [12] 0.003 | [13] -0.089

(list continues)

ARFIP2 (UniProt P53365)
inactive: [1] -0.08 | [2] -0.07 | [3] 0.06 | [4] -0.013 | Nexturastat A -0.028 | vemurafenib 0.007 | [5] 0.127 | [6] -0.063 | givinostat 0.001 | barasertib 0.08 | [7] 0.015 | volasertib -0.158 | [8] 0.139 | epoxomicin 0.014 | [9] -0.173 | [10] -0.1 | [11] 0.036 | rosiglitazone 0.029 | [12] 0.036 | [13] -0.338

ANO10 (UniProt Q9NW15)
inactive: [1] 0.011 | [2] -0.02 | [3] -0.014 | [4] 0.028 | Nexturastat A -0.099 | vemurafenib 0.043 | [5] 0.016 | [6] -0.004 | givinostat -0.018 | barasertib -0.016 | [7] -0.099 | volasertib -0.102 | [8] 0.025 | epoxomicin 0.027 | [9] 0.02 | [10] -0.011 | [11] 0.008 | rosiglitazone 0.065 | [12] -0.059 | [13] 0.102
